Test results reported in patent US20110294772A1, “USE OF CYCLOSQUARAMIDE COMPOUNDS AS ANTI-TUMOUR AGENTS” (priority 2008, published 2011).
Some entries share one result that the patent states for a list of compounds.

Sequences of proteins named here, by UniProt entry; tags and fusion partners are left off. Residues count along the entry.
UniProt P08581, 25-1390: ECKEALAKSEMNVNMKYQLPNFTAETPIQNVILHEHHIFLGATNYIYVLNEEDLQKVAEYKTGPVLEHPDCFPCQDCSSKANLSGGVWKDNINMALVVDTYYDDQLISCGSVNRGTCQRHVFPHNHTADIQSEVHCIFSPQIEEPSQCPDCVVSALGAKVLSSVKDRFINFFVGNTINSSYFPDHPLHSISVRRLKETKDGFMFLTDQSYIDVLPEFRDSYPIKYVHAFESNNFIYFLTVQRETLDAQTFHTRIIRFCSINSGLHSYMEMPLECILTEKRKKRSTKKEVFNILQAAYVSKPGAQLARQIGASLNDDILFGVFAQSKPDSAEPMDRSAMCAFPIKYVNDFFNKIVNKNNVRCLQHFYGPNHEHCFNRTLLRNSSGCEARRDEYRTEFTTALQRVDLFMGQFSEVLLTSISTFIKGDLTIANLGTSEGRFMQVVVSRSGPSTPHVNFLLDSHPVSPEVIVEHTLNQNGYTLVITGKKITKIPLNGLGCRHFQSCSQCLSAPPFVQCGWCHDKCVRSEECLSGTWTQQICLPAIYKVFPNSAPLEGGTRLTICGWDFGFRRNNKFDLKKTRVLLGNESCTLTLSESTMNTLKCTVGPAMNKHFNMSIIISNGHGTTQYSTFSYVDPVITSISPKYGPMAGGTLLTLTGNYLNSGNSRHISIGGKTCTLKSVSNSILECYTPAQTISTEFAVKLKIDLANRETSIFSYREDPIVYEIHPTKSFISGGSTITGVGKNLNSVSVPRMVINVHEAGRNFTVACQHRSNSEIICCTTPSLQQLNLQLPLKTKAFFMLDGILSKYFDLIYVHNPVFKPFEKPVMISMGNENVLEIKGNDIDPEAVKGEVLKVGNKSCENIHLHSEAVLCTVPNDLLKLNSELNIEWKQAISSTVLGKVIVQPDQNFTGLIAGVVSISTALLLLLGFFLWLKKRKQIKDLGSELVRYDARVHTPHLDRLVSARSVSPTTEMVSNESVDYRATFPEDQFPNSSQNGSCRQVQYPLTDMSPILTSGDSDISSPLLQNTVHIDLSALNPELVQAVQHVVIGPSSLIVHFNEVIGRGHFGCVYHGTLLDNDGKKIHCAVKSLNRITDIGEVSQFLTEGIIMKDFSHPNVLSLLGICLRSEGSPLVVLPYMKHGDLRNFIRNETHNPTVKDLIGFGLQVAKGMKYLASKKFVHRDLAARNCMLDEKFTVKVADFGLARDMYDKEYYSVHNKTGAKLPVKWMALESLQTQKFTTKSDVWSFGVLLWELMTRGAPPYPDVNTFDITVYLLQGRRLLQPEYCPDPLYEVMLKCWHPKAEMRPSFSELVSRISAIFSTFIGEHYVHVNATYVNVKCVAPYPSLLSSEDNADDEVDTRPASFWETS

Target: MET (Homo sapiens, UniProt P08581)
Experiment: in vitro kinase assay
Type: biochemical
Experimental: Specifically, against a panel of 210 kinases representative of the human kinome, the compounds tested inhibited by […] the activity of 25 of them in in Vitro assays (Table 1).
The IC50 was determined for the most sensitive kinases to compound 10, obtaining values for said parameter, largely in the micromolar range. For this purpose, the 25 kinases inhibited more than 80% by the compound in in vitro assays were selected.

SMILES	inhibition of kinase c-Met
CN1CCCNc2c(c(=O)c2=O)NCCCN(C)CCCNc2c(c(=O)c2=O)NCCCN(C)CCCNc2c(c(=O)c2=O)NCCCN(C)CCCNc2c(c(=O)c2=O)NCCCN(C)CCCNc2c(c(=O)c2=O)NCCCN(C)CCCNc2c(c(=O)c2=O)NCCC1 [Compound 11]	80-85%
CN1CCCNc2c(c(=O)c2=O)NCCCN(C)CCCNc2c(c(=O)c2=O)NCCCN(C)CCCNc2c(c(=O)c2=O)NCCCN(C)CCCNc2c(c(=O)c2=O)NCCCN(C)CCCNc2c(c(=O)c2=O)NCCC1 [Compound 10]	80-85%
